{"source": "patent US10258612B2", "about": "“Mitochondrial lipid permeable iron chelators for treating and preventing ischemia/reperfusion (I/R) injury in the heart following an ischemic event” (Northwestern University, priority 2015, dated 2019)", "key": {"[1]": {"system": "wild-type mice subjected to I/R", "assay": "Ischemia/reperfusion (I/R) injury in chelator-pretreated wild-type mice", "format": "in vivo", "procedure": "To test the use of these iron chelators in the setting of I/R, mice were pretreated for a week with these chelators and then subjected to I/R or sham operation. Chelation was continued for two weeks after the operation. […] To rule out any changes of serum iron hematopoiesis that can account for the cardiac functional difference, we performed complete blood counts and measured serum iron parameters in wild-type mice treated with iron chelators for 3 weeks.\nMice were treated with 80 mg/kg BPD (Sigma) in normal saline solution daily or 50 mg/kg DFO (Sigma) in normal saline every other day via intraperitoneal injection. The dose of BPD was chosen based on its ability to modulate cardiac mitochondrial iron, and the dose of DFO was chosen according to previously published studies (Ichikawa et al., 2014). BPD was prepared as a 400 mg/ml stock solution in ethanol and diluted 1:100 in normal saline to working concentration. DFO was prepared as a 250 mg/ml stock in water and diluted 1:100 in normal saline to working concentration.\nThe procedure was performed as described previously (Wu et al., 2011).\nParasternal short- and long-axis views of the heart were obtained using a Vevo 770 high-resolution imaging system with a 30 MHz scan head. 2D and M-mode images were obtained and analyzed. Ejection fraction was calculated from M mode image using Teichholtz equation, and fractional shortening was directly calculated from end-systolic and end-diastolic chamber size from M-mode images.\nAt the time of tissue harvest, heart was excised and rinsed in phosphate buffered saline to remove excess blood on tissue and in ventricles. Hearts were then submerged into OTC compound and frozen in liquid nitrogen. For hearts with I/R injury, sections were collected 500 μm below suture line to capture the injured region. Sections were stained with hematoxylin and eosin for evaluation of general cardiac morphology and tissue organization. […] Fibrosis was quantified from low power microscope images by dividing the arc length of fibrotic scar to the circumference of left ventricle. […]"}, "H9c2 cells [2]": {"system": "H9c2 cells", "assay": "Cytosolic and nuclear iron in H9c2 cells preloaded with radioactive 55Fe", "format": "cell-based, rat", "conditions": "H9c2 cells preloaded with 55Fe", "procedure": "(§1) H9c2 cardiomyoblasts were cultured in DMEM (ATCC) supplemented with 10% FBS (Thermo) and Penicillin/Streptomycin (Cellgro). HEK293T cells were cultured in MEM (Cellgro) supplemented with 10% FBS, sodium pyruvate (Cellgro) and Penicillin/Streptomycin. Unless otherwise specified, cells were treated with 200 μM of DFO or 100 μM of BPD for two hours when indicated prior to addition of 600 μM of H2O2 when indicated for 6 hours. RNA isolation and qRT-PCR RNA was isolated using RNA-STAT60 (Tel-Test) according to the manufacturer's instructions, and subjected to DNAse I (Ambion) digestion to remove residual DNA. Purified RNA was then reverse transcribed with Random Hexamer and Oligo dT(16) (Applied Biosystems) and amplified on a 7500 Fast Real-Time PCR system using Fast SYBR Green PCR Master Mix (Applied Biosystems). mRNA levels were calculated based on the difference of threshold Ct values in target gene and average Ct values of 18s, Actb, B2m, and Hprt in the same sample.\nFor nuclear and cytosolic iron, cells were loaded with 280 nM of ^55Fe-NTA. Excess ^55Fe-NTA was washed off with cold PBS containing 200 μM DFO prior to chelator treatment. The nuclear and cytosolic fractions were isolated using NE-PER Nuclear and Cytoplasmic Extraction Reagents (Pierce) and the radioactivity was quantified with liquid scintillation."}, "H9c2 cells [3]": {"system": "H9c2 cells", "assay": "H2O2-induced cell death in H9c2 cells", "format": "cell-based, rat", "conditions": "chelator pretreatment, then H2O2", "procedure": "as §1\nFor in vitro studies, cells were resuspended in 1× Annexin V buffer (BD) and then stained with Alexa Fluor 350 conjugated Annexin V (Life Technology) and propidium iodide (Sigma) according to the manufacturer's instructions and analyzed on a LSRII flow cytometer (BD)."}, "wild-type mice": {"system": "wild-type mice", "assay": "Cardiac mitochondrial, cytosolic and nuclear non-heme iron in wild-type mice treated with iron chelator", "format": "in vivo", "conditions": "wild-type mice at baseline, one-week regimen, BPD 80 mg/kg per day, DFO 50 mg/kg every other day", "procedure": "Mice were treated with 80 mg/kg BPD (Sigma) in normal saline solution daily or 50 mg/kg DFO (Sigma) in normal saline every other day via intraperitoneal injection. The dose of BPD was chosen based on its ability to modulate cardiac mitochondrial iron, and the dose of DFO was chosen according to previously published studies (Ichikawa et al., 2014). BPD was prepared as a 400 mg/ml stock solution in ethanol and diluted 1:100 in normal saline to working concentration. DFO was prepared as a 250 mg/ml stock in water and diluted 1:100 in normal saline to working concentration. […]\nTissue iron was measured colorimetrically by the formation of a complex with bathophenanthroline disulfonate or ferene-S as described previously (Ichikawa et al., 2012; Khechaduri et al., 2013). […] Quantitative measurement of labile iron was done according to previously described methods (Cabantchik et al., 1996; Petrat et al., 2002b). […] Fluorescence intensity was measured using Gemini XS plate reader (Molecular Device) with following excitation emission setting: ex/em 490 nm/520 nm for mitoTracker Green and calcein, 564 nm/601 nm for RPA, and 350 nm/461 nm for Hoechst 33342. After initial measurement, 2 mM of PIH (Abcam) was added to each well and fluorescence signal was measured again. […]"}, "H9c2 cells [4]": {"system": "H9c2 cells", "assay": "Mitochondrial ROS (mitoSox) in H9c2 cells after hydrogen peroxide treatment", "format": "cell-based, rat", "conditions": "chelator pretreatment", "procedure": "as §1\nMitochondrial ROS levels in intact cells were quantified using MitoSox Red (Life Technologies). Briefly, cells were loaded with MitoSox to stain for mitochondrial ROS and Hoechst 33342 for nuclei counter stain. Images were obtained on a Zeiss AxioObserver.Z1 microscope and analyzed with ImageJ software (NIH). MitoSox signal in the nuclei was subtracted to exclude localization of the dye to the nuclei."}, "H9c2 cardiomyoblasts": {"system": "H9c2 cardiomyoblasts", "assay": "Mitochondrial labile (chelatable) iron by RPA fluorescence in H9c2 cells", "format": "cell-based, rat", "procedure": "as §1\nTissue iron was measured colorimetrically by the formation of a complex with bathophenanthroline disulfonate or ferene-S as described previously (Ichikawa et al., 2012; Khechaduri et al., 2013). […] Quantitative measurement of labile iron was done according to previously described methods (Cabantchik et al., 1996; Petrat et al., 2002b). […]"}, "[5]": {"system": "mitochondrial aconitase, complex I, II and IV", "assay": "Mitochondrial enzyme and complex activities in H9c2 cells", "format": "cell-based, rat", "conditions": "chelator pre-treatment, then H2O2", "procedure": "as §1\nMitochondria were isolated from cells as described above. Mitochondrial complex I, II and IV activity was measured as described previously (Spinazzi et al., 2012). Aconitase activity was measured using Aconitase Activity Microplate Assay Kit (Abcam). Citrate synthase activity was measured from the same sample using Citrate Synthase Activity Kit (BioVision) and was used to normalize the mitochondrial complex activity."}}, "note": "Entries after “also recorded” stand apart in the source; their conditions may differ. At least one compound was matched to its structure with a doubt left.", "data": [{"smiles": "CC(=O)N(O)CCCCCNC(=O)CCC(=O)N(O)CCCCCNC(=O)CCC(=O)N(O)CCCCCN", "note": "[DFO, deferoxamine]", "values": [{"measurement": "cardiac function after I/R / protection against I/R injury", "setting": "[1]; mice pretreated for a week, chelation continued for two weeks after operation", "value": "failed to protect mice against I/R damage; also recorded: not DFO protected mice against I/R injury; also recorded: not DFO have preserved cardiac function after I/R"}, {"measurement": "expression of Nppa, Nppb and Myh7 after I/R", "setting": "[1]; mice pretreated for a week, subjected to I/R", "value": "not DFO treatment attenuated the expression of Nppa, Nppb and Myh7"}, {"measurement": "ROS production after I/R", "setting": "[1]; mice pretreated with chelator", "value": "not DFO protected mice against I/R injury and reduced ROS production"}, {"measurement": "cytosolic iron", "setting": "H9c2 cells [2]", "value": "significant decreases"}, {"measurement": "nuclear iron", "setting": "H9c2 cells [2]", "value": "significant decreases"}, {"measurement": "H2O2-induced cell death", "setting": "H9c2 cells [3]", "value": "only conferred a slight protection against oxidative stress; also recorded: not DFO pretreatment protected cells against H2O2 induced cell death; also recorded: not DFO significantly lowered chelatable mitochondrial iron and protected against H2O2 induced cell death"}, {"measurement": "cardiac mitochondrial iron", "setting": "wild-type mice", "value": "did not alter mitochondrial iron levels; also recorded: not DFO (50 mg/kg) have lower mitochondrial iron"}, {"measurement": "increase in mitochondrial ROS after hydrogen peroxide treatment (mitoSox)", "setting": "H9c2 cells [4]", "value": "had no effects"}, {"measurement": "increase in mitochondrial labile iron after H2O2 treatment", "setting": "H9c2 cardiomyoblasts; chelator pretreatment, then 600 μM H2O2 for 6 hours", "value": "attenuated by BPD but not DFO"}, {"measurement": "chelatable / labile mitochondrial iron", "setting": "H9c2 cardiomyoblasts; two-hour pretreatment, 200 μM DFO or 100 μM BPD, no H2O2", "value": "but not DFO, decreased mitochondrial labile iron; also recorded: not DFO significantly reduced chelatable mitochondrial iron; also recorded: not DFO significantly lowered chelatable mitochondrial iron"}, {"measurement": "activities of mitochondrial aconitase, complex I, II and IV after H2O2 treatment", "setting": "[5]", "value": "did not confer any protection"}]}]}
